{"sequences": {"note": "Protein sequences, listed by entry. Tags and fused reporters are not part of them.", "UniProt Q99J95": "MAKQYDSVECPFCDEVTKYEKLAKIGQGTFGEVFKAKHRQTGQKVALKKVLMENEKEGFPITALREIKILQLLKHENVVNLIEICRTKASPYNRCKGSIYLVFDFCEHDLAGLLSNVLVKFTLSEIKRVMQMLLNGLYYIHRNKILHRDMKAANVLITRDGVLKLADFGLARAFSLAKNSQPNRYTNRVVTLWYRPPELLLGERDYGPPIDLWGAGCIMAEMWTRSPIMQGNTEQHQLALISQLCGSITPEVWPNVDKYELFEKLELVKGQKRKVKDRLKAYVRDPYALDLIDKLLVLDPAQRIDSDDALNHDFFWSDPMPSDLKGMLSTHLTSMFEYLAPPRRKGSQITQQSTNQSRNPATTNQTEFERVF"}, "source": "paper PMC11214632", "molecular_target": "T1, Tripartite motif-containing 33 (TRIM33) (mouse (endogenous in C57BL/6 BM Lin–FLT3+ cells and in Mutu DC1940 cells)) (UniProt Q99PP7)", "T1 sequence": "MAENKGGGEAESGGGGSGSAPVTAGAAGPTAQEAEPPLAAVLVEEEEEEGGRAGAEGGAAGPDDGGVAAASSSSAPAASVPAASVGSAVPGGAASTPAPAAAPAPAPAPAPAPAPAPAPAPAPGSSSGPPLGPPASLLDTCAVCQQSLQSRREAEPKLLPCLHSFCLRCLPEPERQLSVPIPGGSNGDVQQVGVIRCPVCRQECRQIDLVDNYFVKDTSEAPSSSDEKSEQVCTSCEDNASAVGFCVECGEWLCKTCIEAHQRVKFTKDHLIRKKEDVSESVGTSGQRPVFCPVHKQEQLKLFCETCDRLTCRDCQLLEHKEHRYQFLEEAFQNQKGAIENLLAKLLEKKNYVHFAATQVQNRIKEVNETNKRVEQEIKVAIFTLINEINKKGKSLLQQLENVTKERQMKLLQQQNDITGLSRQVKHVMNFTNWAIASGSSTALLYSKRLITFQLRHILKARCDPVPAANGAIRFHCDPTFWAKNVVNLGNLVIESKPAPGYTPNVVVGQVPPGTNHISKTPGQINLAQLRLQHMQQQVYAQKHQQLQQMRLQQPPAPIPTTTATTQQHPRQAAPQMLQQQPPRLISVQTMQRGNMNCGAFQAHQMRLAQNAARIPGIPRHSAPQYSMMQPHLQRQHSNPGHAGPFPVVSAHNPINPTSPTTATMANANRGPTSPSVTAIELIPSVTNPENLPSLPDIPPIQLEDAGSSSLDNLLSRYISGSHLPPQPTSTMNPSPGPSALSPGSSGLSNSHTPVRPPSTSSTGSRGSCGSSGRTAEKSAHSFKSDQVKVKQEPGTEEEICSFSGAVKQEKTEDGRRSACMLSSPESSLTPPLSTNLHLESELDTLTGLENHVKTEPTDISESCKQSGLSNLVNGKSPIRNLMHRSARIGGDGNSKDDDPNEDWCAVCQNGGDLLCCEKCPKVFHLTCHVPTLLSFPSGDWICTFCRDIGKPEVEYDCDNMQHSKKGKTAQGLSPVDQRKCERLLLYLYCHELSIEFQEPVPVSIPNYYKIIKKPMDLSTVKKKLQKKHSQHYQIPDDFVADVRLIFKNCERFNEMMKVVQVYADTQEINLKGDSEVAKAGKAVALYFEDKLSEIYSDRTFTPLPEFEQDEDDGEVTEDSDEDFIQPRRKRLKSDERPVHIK", "experiment": "affinity purification with mass spectrometry; lysates of BM Lin–FLT3+ cells of wild-type C57BL/6 mice incubated with anti-TRIM33 antibody or control IgG at 4 °C overnight, Protein A + G magnetic beads, SDS-PAGE, LC-MS/MS", "note": "Results are given in words; binding and its absence hold for the method and conditions named. Binding seen in cells or lysates may run through a third protein. Here binding means that the protein was enriched with, or labelled near, the bait; the list need not be complete.", "data": [{"substance": "cyclin-dependent kinase 9 (CDK9) (from UniProt Q99J95 1-372)", "values": [{"measurement": "binding", "value": "binds"}]}]}
